No constants are given. Whether binding was seen depends on the method and setting. For part of these data: In cells and extracts the contact can be indirect. Some results given as binding are weak or reduced against the parent protein; the word gives no strength. For part of these data: Where a sequence is shown, tags or fusion partners need not be part of it. One block for each molecule: values may come before it.
What was measured:
[1] = molecular target: T1, GFP-RAB7L1 fusion protein, wild type (N-terminally GFP-tagged rat RAB7L1) (rat) (UniProt Q63481); assay: co-immunoprecipitation with anti-Flag antibody from co-transfected HEK293T lysates
T1 sequence (looked up): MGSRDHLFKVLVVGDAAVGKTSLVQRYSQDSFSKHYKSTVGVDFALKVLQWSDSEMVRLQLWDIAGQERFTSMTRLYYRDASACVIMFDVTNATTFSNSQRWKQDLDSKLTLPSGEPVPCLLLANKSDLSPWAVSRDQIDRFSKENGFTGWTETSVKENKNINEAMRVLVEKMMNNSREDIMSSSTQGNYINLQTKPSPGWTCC

Amino acid sequences for entries named in this document (tags omitted). A change or cut given only in a name is not applied to a line headed by its entry.
UniProt Q5S007: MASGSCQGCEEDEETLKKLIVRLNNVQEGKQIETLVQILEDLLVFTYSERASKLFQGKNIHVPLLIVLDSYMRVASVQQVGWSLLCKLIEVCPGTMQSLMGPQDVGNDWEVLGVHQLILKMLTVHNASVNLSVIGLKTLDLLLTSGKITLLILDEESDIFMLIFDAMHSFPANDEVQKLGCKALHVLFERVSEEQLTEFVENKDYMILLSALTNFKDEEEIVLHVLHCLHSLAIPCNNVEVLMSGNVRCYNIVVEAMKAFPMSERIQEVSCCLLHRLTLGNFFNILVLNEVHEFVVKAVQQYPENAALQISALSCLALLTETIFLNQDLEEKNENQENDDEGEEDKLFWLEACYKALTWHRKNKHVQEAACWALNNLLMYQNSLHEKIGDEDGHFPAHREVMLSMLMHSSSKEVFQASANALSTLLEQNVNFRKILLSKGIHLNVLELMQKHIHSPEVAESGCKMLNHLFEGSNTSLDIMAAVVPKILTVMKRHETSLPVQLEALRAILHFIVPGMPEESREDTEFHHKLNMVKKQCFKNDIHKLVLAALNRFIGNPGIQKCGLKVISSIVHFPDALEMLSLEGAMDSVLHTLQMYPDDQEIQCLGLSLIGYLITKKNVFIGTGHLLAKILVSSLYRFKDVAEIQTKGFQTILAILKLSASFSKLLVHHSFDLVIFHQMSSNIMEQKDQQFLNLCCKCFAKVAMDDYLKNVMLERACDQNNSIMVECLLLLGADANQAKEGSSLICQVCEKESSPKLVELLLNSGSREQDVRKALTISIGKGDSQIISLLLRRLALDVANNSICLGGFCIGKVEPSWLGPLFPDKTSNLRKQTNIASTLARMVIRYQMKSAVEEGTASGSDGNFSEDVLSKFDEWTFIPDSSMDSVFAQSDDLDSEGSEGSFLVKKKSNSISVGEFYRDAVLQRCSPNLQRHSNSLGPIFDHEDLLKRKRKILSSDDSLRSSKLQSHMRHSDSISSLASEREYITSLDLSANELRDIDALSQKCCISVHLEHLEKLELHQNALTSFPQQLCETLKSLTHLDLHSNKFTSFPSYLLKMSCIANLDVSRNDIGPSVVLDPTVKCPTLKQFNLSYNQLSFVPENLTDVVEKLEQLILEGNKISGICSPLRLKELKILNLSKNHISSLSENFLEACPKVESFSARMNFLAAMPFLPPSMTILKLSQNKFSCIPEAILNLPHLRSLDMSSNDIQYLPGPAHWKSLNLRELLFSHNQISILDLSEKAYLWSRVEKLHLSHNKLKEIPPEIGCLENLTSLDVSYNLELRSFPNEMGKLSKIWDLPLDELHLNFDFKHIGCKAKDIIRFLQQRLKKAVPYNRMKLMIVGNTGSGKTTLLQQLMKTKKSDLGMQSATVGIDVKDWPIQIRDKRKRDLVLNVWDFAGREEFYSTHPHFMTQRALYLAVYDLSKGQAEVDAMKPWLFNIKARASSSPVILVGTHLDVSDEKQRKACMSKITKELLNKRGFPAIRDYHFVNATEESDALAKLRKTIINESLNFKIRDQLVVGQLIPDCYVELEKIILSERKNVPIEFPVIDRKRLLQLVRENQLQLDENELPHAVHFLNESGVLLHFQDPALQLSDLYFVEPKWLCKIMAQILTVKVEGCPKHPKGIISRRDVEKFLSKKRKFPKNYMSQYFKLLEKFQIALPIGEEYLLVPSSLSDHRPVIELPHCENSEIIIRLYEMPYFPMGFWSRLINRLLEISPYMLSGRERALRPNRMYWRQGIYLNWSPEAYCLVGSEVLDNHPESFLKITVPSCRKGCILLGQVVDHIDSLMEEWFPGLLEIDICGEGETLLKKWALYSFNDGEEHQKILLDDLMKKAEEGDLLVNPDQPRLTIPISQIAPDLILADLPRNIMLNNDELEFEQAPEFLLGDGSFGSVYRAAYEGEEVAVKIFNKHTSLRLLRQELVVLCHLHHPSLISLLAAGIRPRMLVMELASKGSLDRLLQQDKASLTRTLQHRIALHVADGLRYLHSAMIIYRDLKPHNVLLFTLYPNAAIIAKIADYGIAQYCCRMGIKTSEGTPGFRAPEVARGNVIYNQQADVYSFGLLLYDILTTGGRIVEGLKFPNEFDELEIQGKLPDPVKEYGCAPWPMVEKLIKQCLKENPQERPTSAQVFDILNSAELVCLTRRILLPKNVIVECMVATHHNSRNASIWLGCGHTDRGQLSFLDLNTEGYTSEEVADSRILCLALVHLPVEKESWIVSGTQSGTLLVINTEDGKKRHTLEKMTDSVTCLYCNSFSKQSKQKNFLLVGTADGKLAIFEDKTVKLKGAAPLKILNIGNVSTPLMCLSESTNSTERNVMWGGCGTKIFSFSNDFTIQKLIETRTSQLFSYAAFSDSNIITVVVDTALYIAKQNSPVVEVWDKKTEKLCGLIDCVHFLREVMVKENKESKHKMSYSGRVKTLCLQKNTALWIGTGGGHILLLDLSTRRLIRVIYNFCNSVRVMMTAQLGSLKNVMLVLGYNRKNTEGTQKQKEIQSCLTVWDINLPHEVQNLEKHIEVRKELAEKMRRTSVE

[2] = molecular target: T2, RAB7L1 protein in mouse brain lysate (endogenous) (mouse) (UniProt Q91YQ1); assay: immunoprecipitation of LRRK2 with a rabbit monoclonal antibody from transgenic mouse brain lysates, Western blot for RAB7L1
T2 sequence (looked up): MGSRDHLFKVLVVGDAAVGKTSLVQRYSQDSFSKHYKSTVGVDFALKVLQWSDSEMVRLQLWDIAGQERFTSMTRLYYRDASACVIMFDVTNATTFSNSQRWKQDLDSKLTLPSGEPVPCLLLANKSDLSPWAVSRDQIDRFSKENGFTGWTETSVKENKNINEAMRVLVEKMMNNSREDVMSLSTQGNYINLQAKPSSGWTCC

[3] = molecular target: T1, GFP-RAB7L1 fusion protein, wild type (N-terminally GFP-tagged rat RAB7L1) (rat); assay: summary of the co-immunoprecipitation studies (discussion)
[4] = molecular target: T1, GFP-RAB7L1 fusion protein, wild type (N-terminally GFP-tagged rat RAB7L1) (rat); assay: co-immunoprecipitation with anti-Flag antibody from co-transfected HEK293T lysates, probed for RAB7L1 (GFP)
[5] = molecular target: 3×flag (3FL) epitope-tagged LRRK2, wild type [WT] (human) (UniProt Q5S007); assay: co-immunoprecipitation with anti-GFP antibody from co-transfected HEK293T lysates, immunoblot for LRRK2

binding [1]: binds
Molecule: 3×flag (3FL) epitope-tagged LRRK2 K1906M [KM], kinase-dead variant (from UniProt Q5S007 1-2527) (enzyme)

binding [2]: binds
Molecule: human LRRK2 R1441C, familial PD mutant form (BAC transgene, mouse brain) (from UniProt Q5S007 1-2527) (enzyme)

binding [3]: binds
binding [4]: binds
Molecule: 3×flag (3FL) epitope-tagged LRRK2, wild type [WT] (from UniProt Q5S007 1-2527) (enzyme)

binding [1]: binds
Molecule: 3×flag (3FL) epitope-tagged LRRK2 G2019S [GS] (from UniProt Q5S007 1-2527) (enzyme)

binding [5]: binds
B1: GFP-RAB7L1 fusion protein, wild type (N-terminally GFP-tagged rat RAB7L1) (enzyme, UniProt Q63481 1-204, looked up, not shown: large carriers)
chain: MGSRDHLFKVLVVGDAAVGKTSLVQRYSQDSFSKHYKSTVGVDFALKVLQWSDSEMVRLQLWDIAGQERFTSMTRLYYRDASACVIMFDVTNATTFSNSQRWKQDLDSKLTLPSGEPVPCLLLANKSDLSPWAVSRDQIDRFSKENGFTGWTETSVKENKNINEAMRVLVEKMMNNSREDIMSSSTQGNYINLQTKPSPGWTCC

Source: patent US20160184454A1, “RAB7L1 INTERACTS WITH LRRK2 TO MODIFY INTRANEURONAL PROTEIN SORTING AND PARKINSON'S DISEASE RISK” (THE TRUSTEES OF COLUMBIA UNIVERSITY IN THE CITY OF NEW YORK, priority 2013, published 2016)
